Assay results taken from patent publication US20230255975A1, “METHODS FOR TREATING CANCER WITH COMBINATION THERAPIES” (Celgene Corporation, priority 2020, published 2023).
Some of these results come from one statement about several compounds together.

System: NEK2 knockdown cells
Test: Apoptosis by Annexin V staining in NEK2 knockdown cells
Format: cell-based
Settings: combined with NEK2 shRNA knockdown

## O=C1CC[C@H](N2Cc3c(OCc4ccc(CN5CCOCC5)cc4)cccc3C2=O)C(=O)N1 [Compound 5, (S)-3-(4-((4-(morpholinomethyl)benzyl)oxy)-1-oxoisoindolin-2-yl)piperidine-2,6-dione]
  increase of percentage of apoptotic cells in comparison to DMSO control: 2-3 fold
